Experimental data as given in paper PMC7849764.
These are yes or no findings as the source states them, for the method shown. In cells and extracts the contact can be indirect.

By UniProt entry, the sequences of proteins in these tests, tags left out.
UniProt Q14790: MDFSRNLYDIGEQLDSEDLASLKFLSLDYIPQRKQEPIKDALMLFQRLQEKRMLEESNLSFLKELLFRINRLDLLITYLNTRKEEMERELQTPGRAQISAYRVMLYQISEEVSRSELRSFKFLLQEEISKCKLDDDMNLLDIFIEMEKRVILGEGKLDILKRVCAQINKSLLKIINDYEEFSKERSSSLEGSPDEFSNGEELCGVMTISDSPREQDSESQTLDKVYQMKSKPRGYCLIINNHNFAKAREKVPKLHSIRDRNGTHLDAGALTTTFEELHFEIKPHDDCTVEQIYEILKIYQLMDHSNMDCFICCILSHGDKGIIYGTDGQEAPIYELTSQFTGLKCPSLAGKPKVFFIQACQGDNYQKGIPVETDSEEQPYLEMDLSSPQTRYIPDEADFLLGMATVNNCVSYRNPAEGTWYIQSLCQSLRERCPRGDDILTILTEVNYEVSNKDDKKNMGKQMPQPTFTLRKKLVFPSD
UniProt Q13158: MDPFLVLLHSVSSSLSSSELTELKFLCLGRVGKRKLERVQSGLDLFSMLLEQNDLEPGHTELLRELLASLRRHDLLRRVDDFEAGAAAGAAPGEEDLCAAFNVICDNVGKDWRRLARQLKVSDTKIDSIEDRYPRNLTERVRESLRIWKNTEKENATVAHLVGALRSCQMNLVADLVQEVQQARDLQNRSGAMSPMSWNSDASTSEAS

Key:
[1] = target: procaspase-8a/b (p55/p53) (human (endogenous in MDA-MB-231)) (UniProt Q14790); test: co-IP; anti-caspase-8 co-IP from MDA-MB-231 cells co-treated with purified RL2 and TRAIL for three hours; blot for RL2; only the binder purified
[2] = target: Fas-associated protein with death domain (FADD) (human (endogenous in MDA-MB-231)) (UniProt Q13158); test: as above
[3] = target: procaspase-8a/b (p55/p53) (human (endogenous in MDA-MB-231)) (UniProt Q14790); test: co-IP; anti-FADD co-IP from MDA-MB-231 cells co-treated with purified RL2 and TRAIL for three hours; blot for RL2; only the binder purified
[4] = target: Fas-associated protein with death domain (FADD) (human (endogenous in MDA-MB-231)) (UniProt Q13158); test: as above

binding [1]: no binding | binding [3]: no binding
B1: RL2 (recombinant lactaptin 2), a recombinant fragment of human κ-Casein (domain or fragment, UniProt P07498 23-134)
chain: QNQKQPACHENDERPFYQKTAPYVPMYYVPNSYPYYGTNLYQRRPAIAINNPYVPRTYYANPAVVRPHAQIPQRQYLPNSHPPTVVRRPNLHPSFIAIPPKKIQDKIIIPTI
binding [2]: no binding | binding [4]: no binding
